In PMC8538406:
These are yes or no findings as the source states them, for the method shown. Binding seen in cells or lysates may run through a third protein. Some results given as binding are weak or reduced against the parent protein; the word gives no strength.

Sequences of proteins named here, by UniProt entry; tags and fusion partners are left off. Residues count along the entry.
UniProt P47774, residues 25-378: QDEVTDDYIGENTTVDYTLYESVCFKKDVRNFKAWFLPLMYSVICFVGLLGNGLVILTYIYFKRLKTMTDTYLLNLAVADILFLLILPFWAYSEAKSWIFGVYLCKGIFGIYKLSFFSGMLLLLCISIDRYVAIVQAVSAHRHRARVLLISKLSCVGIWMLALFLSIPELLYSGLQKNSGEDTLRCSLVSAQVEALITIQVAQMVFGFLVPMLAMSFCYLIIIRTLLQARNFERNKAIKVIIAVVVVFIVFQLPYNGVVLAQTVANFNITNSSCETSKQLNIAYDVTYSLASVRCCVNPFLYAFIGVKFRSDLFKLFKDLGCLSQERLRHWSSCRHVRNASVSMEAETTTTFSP
UniProt P70658: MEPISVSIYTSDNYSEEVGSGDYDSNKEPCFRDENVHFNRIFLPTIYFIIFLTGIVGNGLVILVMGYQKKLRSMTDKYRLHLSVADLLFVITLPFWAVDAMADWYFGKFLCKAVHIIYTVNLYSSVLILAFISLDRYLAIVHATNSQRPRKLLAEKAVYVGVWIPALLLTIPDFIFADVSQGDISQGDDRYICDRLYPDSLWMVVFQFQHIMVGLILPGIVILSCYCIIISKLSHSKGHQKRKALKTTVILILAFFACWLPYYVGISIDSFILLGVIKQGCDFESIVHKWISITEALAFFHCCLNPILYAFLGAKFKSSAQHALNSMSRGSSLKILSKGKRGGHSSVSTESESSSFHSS

Legend:
[1] = biological target: CCR7, mouse, endogenous in MMTV-PyMT primary mammary tumour cells (mouse (endogenous in MMTV-PyMT mammary epithelial cells)) (UniProt P47774); test: FRET or BRET; FACS-FRET on primary epithelial tumour cells of MMTV-PyMT mice, advanced invasive tumour (~18 weeks)
[2] = biological target: CCR7, mouse, endogenous in MMTV-PyMT primary mammary tumour cells (mouse (endogenous in MMTV-PyMT mammary epithelial cells)) (UniProt P47774); test: condition: only in cells from hyperplasia and early tumour stages; FRET or BRET; FACS-FRET on primary epithelial tumour cells of MMTV-PyMT mice, hyperplasia (~8 weeks) and early tumour (~11 weeks)

binding [1]: binds | binding [2]: no binding
Substance: CXCR4, mouse, endogenous in MMTV-PyMT primary mammary tumour cells (from UniProt P70658 1-359) (receptor)
